Data as given in patent US20050214219A1, “24p3 receptors and uses thereof” (priority 2003, published 2005).
Results are given in words; binding and its absence hold for the method and conditions named. Some results given as binding are weak or reduced against the parent protein; the word gives no strength. Sequences can lack the tags named with a protein.

Biological target: T1, recombinant N-terminal epitope-tagged 24p3R-L stably expressed on HeLa cells (HeLa/24p3R-L) (murine)
T1 sequence: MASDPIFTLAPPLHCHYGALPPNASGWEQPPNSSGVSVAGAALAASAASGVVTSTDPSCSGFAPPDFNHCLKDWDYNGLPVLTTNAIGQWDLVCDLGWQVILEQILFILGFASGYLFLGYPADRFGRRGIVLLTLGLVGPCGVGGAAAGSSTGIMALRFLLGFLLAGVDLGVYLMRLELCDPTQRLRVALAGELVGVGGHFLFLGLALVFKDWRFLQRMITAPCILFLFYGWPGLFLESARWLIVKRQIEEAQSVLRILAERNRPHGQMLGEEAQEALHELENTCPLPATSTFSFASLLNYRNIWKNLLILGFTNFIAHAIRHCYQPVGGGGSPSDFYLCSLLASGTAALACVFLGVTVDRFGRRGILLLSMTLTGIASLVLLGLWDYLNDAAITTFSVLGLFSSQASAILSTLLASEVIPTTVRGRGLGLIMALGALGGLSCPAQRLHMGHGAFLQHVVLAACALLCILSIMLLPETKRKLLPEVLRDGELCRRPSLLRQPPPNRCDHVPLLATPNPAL
Test: ligand-cell binding, radiolabeled ligand on stably transfected HeLa cells

B1: 32P-labeled 24p3 (recombinant 24p3) (ligand, mouse, UniProt P11672 21-200, looked up)
chain: QDSTQNLIPAPSLLTVPLQPDFRSDQFRGRWYVVGLAGNAVQKKTEGSFTMYSTIYELQENNSYNVTSILVRDQDQGCRYWIRTFVPSSRAGQFTLGNMHRYPQVQSYNVQVATTDYNQFAMVFFRKTSENKQYFKITLYGRTKELSPELKERFTRFAKSLGLKDDNIIFSVPTDQCIDN
modifications: 32P-labeled (position not given)
- binding: binds
